{"source": "patent US20060058237", "biological_target": "T1, p49/STRAP (UniProt Q9CZ91)", "T1 sequence": "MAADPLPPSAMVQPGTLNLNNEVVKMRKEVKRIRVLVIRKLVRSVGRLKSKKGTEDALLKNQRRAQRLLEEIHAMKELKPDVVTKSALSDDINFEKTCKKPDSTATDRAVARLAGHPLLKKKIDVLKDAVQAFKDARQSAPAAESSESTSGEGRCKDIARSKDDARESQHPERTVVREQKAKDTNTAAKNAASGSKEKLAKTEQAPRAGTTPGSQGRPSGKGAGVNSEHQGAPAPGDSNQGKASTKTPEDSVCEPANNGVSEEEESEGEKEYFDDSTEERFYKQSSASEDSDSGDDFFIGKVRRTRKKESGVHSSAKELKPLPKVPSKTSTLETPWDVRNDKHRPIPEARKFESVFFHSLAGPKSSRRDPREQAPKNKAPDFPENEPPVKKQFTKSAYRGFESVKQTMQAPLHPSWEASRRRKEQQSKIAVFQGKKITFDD", "assay": "EMSA", "details": "with SRF present, no additional band shifted by anti-SRF or anti-HA, no ternary complex with SRF at SRE, in vitro translated protein and NIH3T3 lysate, data not shown", "note": "The exact form of at least one protein or probe is not confirmed. No signal at the amounts used counts as a negative. Protein sequences can lack the tags named with them."}
{"sequence": "GGATGTCCATATTAGGACATCT (double strand) [c-fos SRE consensus oligonucleotide]", "values": [{"measurement": "binding result", "value": "no binding"}]}
